The nature of the assay: qHTS Assay to Find Inhibitors of Chronic Active B-Cell Receptor Signaling. The settings on record: ABC-DLBCL IkBa-CBG/CBR reporter, luminescence ratio (green luciferase fused to IkBa over red control in TMD8 lymphoma cells), 4 h. The procedure, abridged: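 Cell line TMD8 (human ABC DLBCL), stably expressing tet-inducible CBG68-IkBa fusion and CBR; IMDM/0.5% FBS; cpd up to 46 uM; dox induction, 4 h, 37C/5% CO2; dual luminescence; green/red ratio; MG132 control.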
In general terms: In qHTS, concentration-response curves come from the screen itself.

Setting [1] is: measured here: CBR red luminescence, cell number.
Setting [2] is: measured here: IkBa-CBG green luminescence.

This is one part of the list. The main result of the screen is listed elsewhere. These columns were measured beside it and carry no call. The list favours compounds with an active or inconclusive main result. Words in brackets tell the shape of the fitted curve; partial curves, single points and poor fits give uncertain potencies.

Consider `COc1cccc(C2N(c3ccccc3)CCN2c2ccccc2)c1OC`, for which, under setting [1], the concentration at half-maximal activity (AC50) is 11.2 µM [rising, partial curve].

On to `O=C(Nc1ccc(N2CCOCC2)cc1)c1ccc(S(=O)(=O)NCc2ccco2)cc1`, for which the AC50 under setting [1] is 12.6 µM [rising, partial curve, poor fit]. Same read-out and setting: in the case of `N#Cc1ccc(-c2ccc(OCC(O)CN3CCCCC3)cc2)cc1` (stereo not drawn) it was 10 µM [falling, single point]; in that of `CC(C)CNC(=O)c1ccccc1NC(=O)CCSc1ccccc1`, 2.31 µM [falling, full curve, poor fit]; in that of `CC(=O)c1ccc(NC(=O)c2ccc3nc(C)sc3c2)cc1`, 7.94 µM [rising, partial curve]. For `Cc1noc(C)c1S(=O)(=O)N1CCCCC1`, the AC50 under setting [1] was 6.51 µM [rising, single point]. Turning to `CCN(CC)S(=O)(=O)c1ccc(C(=O)OCCN2C(=O)CCC2=O)cc1`, the concentration at half-maximal activity (AC50) under setting [1] is 1.78 µM [rising, full curve, poor fit].

Regarding `C=CCn1c(N)c(S(=O)(=O)c2cccs2)c2nc3ccccc3nc21`, under setting [1], the AC50 was 4.61 µM [falling, partial curve, poor fit]. On the same count and under the same terms, in the case of `Cn1nc(N)c2c(-c3ccc(Cl)cc3)c(C#N)c(N)nc21` it was 1.16 µM [falling, full curve, poor fit]. Regarding `O=C(Nc1cccc(NC(=O)N2CCN(c3ccccc3)CC2)c1)N1CCN(c2ccccc2)CC1`, under setting [1], the AC50 is 0.794 µM [falling, full curve].

For the compound `CCN1CCc2c(sc(NC(=S)NC(=O)c3ccccc3)c2C#N)C1`, the AC50 under setting [1] was 12.6 µM [falling, single point]. As for `O=C(NNC(=O)c1cccc([N+](=O)[O-])c1)c1ccncc1`, the AC50 under setting [1] is 12.6 µM [falling, partial curve, poor fit].

Turning to `O=C(CCN1CCC(c2ccccc2)C1)c1ccc2c(c1)OCCO2` (stereo not drawn), the concentration at half-maximal activity (AC50) runs as follows: under setting [1], 10 µM [falling, partial curve]; under setting [2], 11.6 µM [rising, partial curve, poor fit]. For the compound `CSc1cccc(NC(=O)C(C)C)c1`, the concentration at half-maximal activity (AC50) under setting [1] is 35.5 µM [rising, single point]. The same measure, in the same setting: in the case of `CCOC(=O)c1sc(NCCNc2nc(C)c(C(=O)OCC)s2)nc1C` it was 28.2 µM [falling, partial curve, poor fit]; in that of `Cc1cc(C)c(NC(=O)c2ccc(S(=O)(=O)N(C)C)cc2)c(C)n1`, 25.9 µM [rising, single point]. The same measure, in the same setting: in the case of `COc1ccc(/C=N/Nc2nc(C)cc(-c3ccccc3)n2)cc1OC` it was 14.1 µM [falling, partial curve, poor fit]; in that of `COc1cccc2sc(N(CCCN(C)C)C(=O)CCS(=O)(=O)c3ccccc3)nc12`, 20 µM [falling, partial curve, poor fit]; in that of `N/C(=N\OC(=O)CCc1ccccc1)c1cccc(Br)c1`, 0.708 µM [rising, full curve]. On the same count and under the same terms, the result for `COc1ccc(OCC(=O)Nc2cccc(NC(=O)c3ccco3)c2)cc1` reads 1 µM [falling, full curve, poor fit]. As for `Cc1ccc(OC(=O)c2ccccc2C(=O)OCC(F)(F)C(F)F)cc1`, under setting [1], the half-maximal activity concentration (AC50) is 29.1 µM [rising, single point].

Take `C=CCc1cc(Cl)ccc1OCCOCCNC(C)CC` (stereo not drawn): under setting [1], the AC50 was 22.4 µM [falling, single point]. Same read-out and setting: the result for `Cc1cccc2nc(COc3ccc(Cl)c4cccnc34)cn12` reads 12.6 µM [falling, partial curve, poor fit]; that for `O=C(Nc1ccccc1C(=O)O)c1cc(S(=O)(=O)N2CCCCC2)c(Cl)cc1Cl`, 2.82 µM [falling, full curve, poor fit]; that for `CC(C)(C)NC(=O)c1cccc2c1OC(C)(C)C2`, 10.3 µM [rising, partial curve, poor fit]. On to `CCN(Cc1ccc(OC)c(F)c1)C(C)C(=O)Nc1ccc(S(=O)(=O)N2CCCC2)cc1` (stereo not drawn), for which the AC50 under setting [1] was 7.31 µM [rising, partial curve, poor fit]. As for `S=C(NCCc1ccc(Cl)cc1)NCc1ccccc1`, the AC50 under setting [1] is 15.8 µM [falling, partial curve, poor fit]. Still for that read-out and setting: in the case of `O=C(NCCc1ccc2c(c1)OCCO2)c1ccccn1` it was 15.8 µM [falling, single point]. Consider `O=C(NCCN1CCOCC1)c1cc(-c2ccc(Br)cc2)on1`, for which the half-maximal activity concentration (AC50) under setting [1] was 6.31 µM [rising, full curve]. Still for that read-out and setting: the result for `Cc1ccc(CNc2oc(-c3ccco3)nc2S(=O)(=O)c2ccccc2)cc1` reads 29.1 µM [falling, single point]. Turning to `Cc1ccc2c(c1)C(=O)C(=O)N2CCOc1ccccc1`, the AC50 runs as follows: under setting [1], 3.98 µM [rising, full curve]; under setting [2], 11.2 µM [falling, partial curve]. For `CN1C(=O)Cc2cc(S(=O)(=O)NCc3cccs3)ccc21`, under setting [1], the concentration at half-maximal activity (AC50) was 20 µM [falling, single point]. On the same count and under the same terms, the result for `O=C(c1ccc2noc(-c3ccccc3)c2c1)N1CCN(c2ccccc2)CC1` reads 18.4 µM [falling, single point]; that for `O=C(O)C(c1ccccc1)N1C(=O)/C(=C/c2cccs2)SC1=S` (stereo not drawn), 2.82 µM [falling, single point]; that for `COc1cccc(CNC2CCCCCCC2)c1OC`, 25.1 µM [rising, partial curve, poor fit]. Same read-out and setting: the result for `COc1ccc(OC)c(NC(=O)c2cc(-c3ccc(C)cc3O)n[nH]2)c1` reads 14.6 µM [falling, partial curve, poor fit]. Same read-out and setting: in the case of `COc1cc(/C=N/O)ccc1Oc1cnccn1` it was 0.708 µM [falling, partial curve, poor fit]; in that of `O=C(NCCSc1ncc(-c2ccc(F)cc2)[nH]1)c1ccc2c(c1)OCO2`, 2.06 µM [rising, full curve, poor fit]; in that of `Clc1ccccc1OCc1nc(-c2ccccn2)no1`, 14.6 µM [falling, single point]. For `CCOc1cc2c(cc1OCC)C(c1ccccc1)N(c1ccc(C(=O)O)cc1)C(=O)C2` (stereo not drawn), the AC50 under setting [2] was 17.8 µM [rising, partial curve, poor fit].

For `COc1ccccc1NC(=S)NNC(=O)c1nn(C)c(C)c1Br`, under setting [1], the AC50 was 7.31 µM [falling, partial curve]. The same measure, in the same setting: the result for `Brc1ccc(-c2ncc(-c3ccccc3)cn2)cc1` reads 29.1 µM [falling, single point]; that for `COc1ccc(S(=O)(=O)N2CCCCC2)cc1NC(=O)COc1ccccc1`, 29.1 µM [falling, single point]; that for `CCOC(=O)c1sc(NC(=O)CSc2nnnn2-c2ccccc2)c(C(=O)OCC)c1C`, 6.31 µM [rising, partial curve, poor fit]. Regarding `Fc1cccc(-c2nc(-c3ccncc3)no2)c1`, the half-maximal activity concentration (AC50) under setting [1] was 4.47 µM [rising, single point].

Regarding `Cc1cccc(OCC(=O)Nc2ccc3c(c2)C(=O)NC3=O)c1`, the AC50 under setting [1] was 3.55 µM [falling, partial curve, poor fit]. The same measure, in the same setting: in the case of `CCOc1ncccc1C(=O)NNC(=O)c1ccc(NS(=O)(=O)c2cccs2)cc1` it was 20.6 µM [falling, single point].

For the compound `C=CCNc1oc(-c2ccc(-c3ccccc3)cc2)nc1C#N`, the concentration at half-maximal activity (AC50) under setting [2] is 3.26 µM [falling, full curve].

As for `Cc1ccc(SC(C)C(=O)Nc2ccccc2C(=O)N2CCOCC2)cc1` (stereo not drawn), the concentration at half-maximal activity (AC50) under setting [1] is 32.6 µM [rising, single point]. In the case of `O=C(CCCN1C(=O)/C(=C/c2cccs2)SC1=S)NNC(=O)c1cccnc1`, the AC50 under setting [1] is 4.47 µM [falling, partial curve]. Turning to `C=CCNC(=O)c1ccccc1NC(=O)Nc1ccccc1`, the AC50 under setting [1] is 9.2 µM [falling, partial curve].

`Brc1ccc(CN2C3=NCCCN3c3ccccc32)cc1`: the half-maximal activity concentration (AC50) under setting [1] is 29.1 µM [falling, single point]. Consider `COc1ccc2c(c1)C(C)=CC(C)(C)N2S(=O)(=O)c1ccc(C)cc1`, for which the half-maximal activity concentration (AC50) by setting is: under setting [1], 5.01 µM [rising, full curve]; under setting [2], 3.55 µM [falling, full curve]. As for `CCNc1ccc(N=Nc2c(C)n(C)n(-c3ccccc3)c2=O)cc1`, the AC50 under setting [2] was 14.1 µM [falling, partial curve, poor fit].

For `COc1cccc(CN(C)CC(=O)NC(=O)NCc2ccco2)c1`, the concentration at half-maximal activity (AC50) under setting [1] is 16.4 µM [rising, partial curve, poor fit].

As for `COc1ccc(OC)c(-c2cc(C(=O)N3CCCc4ccccc43)no2)c1`, the concentration at half-maximal activity (AC50) under setting [1] was 20 µM [falling, partial curve, poor fit].

In the case of `Cc1nc(N)sc1-c1csc(Nc2ccc(S(N)(=O)=O)cc2)n1`, under setting [1], the AC50 was 10 µM [falling, partial curve, poor fit]. Same read-out and setting: in the case of `COC(=O)c1nc(NC(=S)NC(=O)c2cccs2)sc1C` it was 5.01 µM [falling, partial curve, poor fit]; in that of `CCc1cccc(CC)c1N(COC)C(=O)Cn1c(C(C)O)nc2ccccc21` (stereo not drawn), 35.5 µM [falling, single point]; in that of `O=C(NOCc1ccccc1)c1ccc(Cl)cc1`, 11.6 µM [falling, partial curve]. In the case of `C=COCCNC(=O)Nc1ccc(Cl)c(Cl)c1`, under setting [1], the AC50 is 13 µM [falling, partial curve]. Same read-out and setting: the result for `NC(=O)c1ccc(NC(=O)COc2cccc3c2CCNC3=O)cc1` reads 20.6 µM [rising, partial curve, poor fit]; that for `N#Cc1ccc(N2Cc3ccccc3C2=NC(=O)c2cccs2)cc1`, 2.59 µM [rising, partial curve, poor fit]; that for `O=C(Nc1ccc(Cl)cc1)Nc1cc(S(=O)(=O)N2CCOCC2)ccc1N1CCCC1`, 16.4 µM [rising, partial curve]. On the same count and under the same terms, in the case of `COc1cc(-c2nc(-c3cccc(C)c3)no2)cc(OC)c1OC` it was 7.31 µM [rising, partial curve, poor fit].

For orientation: AC50 means the concentration giving half of the maximal activity seen.

These data come from PubChem BioAssay AID493014 (National Center for Advancing Translational Sciences (NCATS), 2011).
